We go through 20 molecules from US20230060388A1.

No constants are given. Whether binding was seen depends on the method and setting. A result given as binding can be weak or reduced; the word gives no strength.

B1: 2A3 VHH (VHH)
VHH: QVQLVESGGGVVQPGRSLRLSCAASGGSFSSYPMGWFRQAPGKERESVAAISSDMRFTYYADSVKGRFTISRDNSKNTLYLQMNSLRAEDTAVYYCAARDSGVGYYSRAQWYDYWGQGTLVTVSS
B2: 2D5 VHH (VHH)
VHH: QVQLVESGGGVVQPGRSLRLSCAASGPSFSSSPMGWFRQAPGKERESVAAISWDGRFTYYADSVKGRFTISRDNSKNTLYLQMNSLRAEDTAVYYCAARDSGSGYYSRAQWYVYWGQGTLVTVSS
B3: 2A5 VHH (VHH)
VHH: QVQLVESGGGVVQPGRSLRLSCAASGPSFSSYPMGWFRQAPGKERESVAAISSVGRFTYYADSVKGRFTISRDNSKNTLYLQMNSLRAEDTAVYYCAARDSGSGYYSRWQWYDYWGQGTLVTVSS
B4: 6E9 VHH (VHH)
VHH: QVQLVESGGGVVQPGRSLRLSCAASGPSRSSYPMGWFRQAPGKERESVAAISSDGKFTYYADSVKGRFTISRDNSKNTLYLQMNSLRAEDTAVYYCAARDSGSGYYSRANWYDYWGQGTLVTVSS
B5: 2C5 VHH (VHH)
VHH: QVQLVESGGGVVQPGRSLRLSCAASGPSFSTYPMGWFRQAPGKERESVAAISSQGRFTYYADSVKGRFTISRDNSKNTLYLQMNSLRAEDTAVYYCAARDSGSGYYSRAQWYDYWGQGTLVTVSS
B6: 1C7 VHH (VHH)
VHH: QVQLVESGGGVVQPGRSLRLSCAASGPSFSSYPMGWFRQAPGKERESVAAISSRGRFTYYADSVKGRFTISRDNSKNTLYLQMNSLRAEDTAVYYCAARGSGSGYYSRAQWYDYWGQGTLVTVSS
B7: 5G10 VHH (VHH)
VHH: QVQLVESGGGVVQPGRSLRLSCAASGPRFSSYPMGWFRQAPGKERESVAAISSDGRFTYYADSVKGRFTISRDNSKNTLYLQMNSLRAEDTAVYYCAARDSGSGYYSRAQWYDGWGQGTLVTVSS
B8: 1G1-1C12 VHH (VHH)
VHH: QVQLVESGGGVVQPGRSLRLSCAASGPSFSSYPMGWFRQAPGKERESVAAISSDLRFTYYADSVKGRFTISRDNSKNTLYLQMNSLRAEDTAVYYCAARDSGSGYYSRKQWYDYWGQGTLVTVSS
B9: 7B11 VHH (VHH)
VHH: QVQLVESGGGVVQPGRSLRLSCAASGPSFLIYPMGWFRQAPGKERESVAAISSDGRFWYYADSVKGRFTISRDNSKNTLYLQMNSLRAEDTAVYYCAARDSGSGYYSRVQWYDYWGQGTLVTVSS
B10: 6D12 VHH (VHH)
VHH: QVQLVESGGGVVQPGRSLRLSCAASGPSFSTYPMGWFRQAPGKERESVAAISSDGVFTYYADSVKGRFTISRDNSKNTLYLQMNSLRAEDTAVYYCAARDSGSGYYSREQWYDYWGQGTLVTVSS
B11: 1A8 VHH (VHH)
VHH: QVQLVESGGGVVQPGRSLRLSCAASGPSFSSYPMGWFRQAPGKERESVAAISSRGRFTYYADSVKGRFTISRDNSKNTLYLQMNSLRAEDTAVYYCAARDSGSGYYSRAQWYDYWGQGTLVTVSS
B12: 6B11 VHH (VHH)
VHH: QVQLVESGGGVVQPGRSLRLSCAASGPSFPSYPMGWFRQAPGKERESVAAISSRGRFTYYADSVKGRFTISRDNSKNTLYLQMNSLRAEDTAVYYCAARDSGSGYYSRLQWYDYWGQGTLVTVSS
B13: 5B5 VHH (VHH)
VHH: QVQLVESGGGVVQPGRSLRLSCAASGPSFSSYPMGWFRQAPGKERESVAAISSDTRFTYYADSVKGRFTISRDNSKNTLYLQMNSLRAEDTAVYYCAARDSGSGYYSRAQWYDRWGQGTLVTVSS
B14: 1A10 VHH (VHH)
VHH: QVQLVESGGGVVQPGRSLRLSCAASGNSFSSYPMGWFRQAPGKERESVAAISSDGRFSYYADSVKGRFTISRDNSKNTLYLQMNSLRAEDTAVYYCACRDSGSGYYSRAQWYDYWGQGTLVTVSS
B15: 7F6 VHH (VHH)
VHH: QVQLVESGGGVVQPGRSLRLSCAASGPMFSSYPMGWFRQAPGKERESVAAISSDPRFTYYADSVKGRFTISRDNSKNTLYLQMNSLRAEDTAVYYCAARDSGSGYYSRAQWYDYWGQGTLVTVSS
B16: 1D11 VHH (VHH)
VHH: QVQLVESGGGVVQPGRSLRLSCAASGPSFSSSPMGWFRQAPGKERESVAAISSMGRFTYYADSVKGRFTISRDNSKNTLYLQMNSLRAEDTAVYYCAARDSGSGYYSRAQWYDYWGQGTLVTVSS
B17: 5E8 VHH (VHH)
VHH: QVQLVESGGGVVQPGRSLRLSCAASGPSFSSYPMGWFRQAPGKERESVAAQSSDGRFTYYADSVKGRFTISRDNSKNTLYLQMNSLRAEDTAVYYCAARDSGSGYYSRAQWYDYWGQGTLVTVSS
B18: 6D8 VHH (VHH)
VHH: QVQLVESGGGVVQPGRSLRLSCAASGPSFSSKPMGWFRQAPGKERESVAARSSDGRFTYYADSVKGRFTISRDNSKNTLYLQMNSLRAEDTAVYYCAARDSGSGRYSRAQWYDYWGQGTLVTVSS
B19: 2A6 VHH (VHH)
VHH: QVQLVESGGGVVQPGRSLRLSCAASGPSFSLYPMGWFRQAPGKERESVAAISSDRRFTYYADSVKGRFTISRDNSKNTLYLQMNSLRAEDTAVYYCAARDSGSGYYSRAQWYDYWGQGTLVTVSS
B20: 6F12 VHH (VHH)
VHH: QVQLVESGGGVVQPGRSLRLSCAASGPSFTSYPMGWFRQAPGKERESVAAISSDGRFKYYADSVKGRFTISRDNSKNTLYLQMNSLRAEDTAVYYCAAEDSGSGYYSRAQWYDYWGQGTLVTVSS

This experiment deals with recombinant cynomolgus TIGIT (cynomolgus monkey). Kind of experiment: ELISA, VHH supernatant. A general note: In an ELISA, binding on a coated surface is turned into a signal by an enzyme label.
For B1, the binding result is given as “binds”.

On to B2, for which the binding entry is reported as “binds”.

For the molecule B3, the binding result is “binds”.

Turning to B4, the binding entry was “binds”.

B5: the binding entry was “binds”.

On to B6, for which the binding entry is listed as “binds”.

As to B7, the binding entry is given as “binds”.

As to B8, the binding entry was “binds”.

In the case of B9, the binding result was “binds”.

For the molecule B10, the binding entry was “binds”.

For the molecule B11, the binding entry is recorded as “binds”.

On to B12, for which the binding result is “binds”.

As to B13, the binding entry is “binds”.

For B14, the binding result was “binds”.

B15: the binding entry is on record as “binds”.

As for B16, the binding result is on record as “binds”.

For B17, the binding result is given as “binds”.

On to B18, for which the binding entry was “binds”.

In the case of B19, the binding entry was “binds”.

In the case of B20, the binding result is “binds”.
